These results are taken from paper PMC5996148.

Sequences of proteins named here, by UniProt entry; tags and fusion partners are left off. A change or cut given only in a name is not applied to a line headed by its entry.
UniProt Q6NUN7: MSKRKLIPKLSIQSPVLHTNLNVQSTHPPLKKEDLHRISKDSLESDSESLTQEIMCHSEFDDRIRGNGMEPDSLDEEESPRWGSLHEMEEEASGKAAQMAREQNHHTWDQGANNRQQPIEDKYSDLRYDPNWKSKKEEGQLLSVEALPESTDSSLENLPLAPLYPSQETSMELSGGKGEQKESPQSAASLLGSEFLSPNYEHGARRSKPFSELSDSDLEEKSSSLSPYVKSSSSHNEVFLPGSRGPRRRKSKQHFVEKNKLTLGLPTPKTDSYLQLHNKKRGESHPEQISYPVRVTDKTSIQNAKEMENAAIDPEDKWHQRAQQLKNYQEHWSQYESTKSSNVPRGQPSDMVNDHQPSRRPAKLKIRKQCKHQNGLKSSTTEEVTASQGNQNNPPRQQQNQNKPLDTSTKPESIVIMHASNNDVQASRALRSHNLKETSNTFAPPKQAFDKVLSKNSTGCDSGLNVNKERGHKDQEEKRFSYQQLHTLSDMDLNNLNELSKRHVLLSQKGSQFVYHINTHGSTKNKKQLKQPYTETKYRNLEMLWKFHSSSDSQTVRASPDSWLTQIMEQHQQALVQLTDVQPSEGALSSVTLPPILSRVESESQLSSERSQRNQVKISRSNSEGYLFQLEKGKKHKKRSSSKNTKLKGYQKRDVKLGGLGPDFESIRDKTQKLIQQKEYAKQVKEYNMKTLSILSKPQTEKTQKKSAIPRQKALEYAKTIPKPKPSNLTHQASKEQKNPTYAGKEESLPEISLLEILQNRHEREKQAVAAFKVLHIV
UniProt Q8N6K0: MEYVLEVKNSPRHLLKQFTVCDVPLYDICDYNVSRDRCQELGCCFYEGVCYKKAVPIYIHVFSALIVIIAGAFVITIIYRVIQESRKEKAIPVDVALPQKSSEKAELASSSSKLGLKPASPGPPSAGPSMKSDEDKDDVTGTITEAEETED

Some of the results follow. For some assays here: The exact form of the protein is not confirmed.

Among the test systems are C10orf65 (human); C10orf83 (human); C11orf45 (human); C11orf51 (human); C11orf53 (human); C11orf59 (human); C11orf64 (human); C11orf65 (human); C11orf66 (human); C11orf70 (human); C11orf71 (human); C11orf74 (human); C11orf79 (human); C12orf10 (human); C12orf39 (human); C12orf41 (human); C12orf48 (human); C12orf5 (human).
Assay in all cases: protein microarray (ProtoArray v5.0), streptavidin-Alexa Fluor 647
Common to all, as to settings: 3'-biotin; 20 mM Tris (pH 7.5), 5 mM MgCl2, 100 mM KCl, 0.1% Tween-20, A/T-rich and random oligonucleotide blockers; temperature not stated; high values mean tight binding

A further assay has as its target C11orf63 (UniProt Q6NUN7).
A further assay deals with C13orf16 (UniProt Q8N6K0).

For “GGGAGGCTGAGGCAGG [G4-1 biotinylated (PQS2)]”, the binding signal was -0.295 z-score with C10orf65 (human); -0.269 z-score in the assay on C10orf83 (human); -0.305 z-score with C11orf45 (human); -0.346 z-score in the assay on C11orf51 (human); -0.355 z-score with C11orf53 (human); -0.319 z-score with C11orf59 (human). Further, the binding signal in the assay with C11orf63 was 4.93 z-score; with C11orf64 (human), -0.317 z-score; with C11orf65 (human) it was -0.348 z-score; with C11orf66 (human), -0.323 z-score; in the assay with C11orf70 (human) it was -0.288 z-score; in the assay with C11orf71 (human), -0.241 z-score. Moreover, the binding signal was -0.345 z-score with C11orf74 (human); -0.331 z-score in the assay on C11orf79 (human); -0.334 z-score in the assay with C12orf10 (human); -0.285 z-score in the assay with C12orf39 (human); -0.358 z-score with C12orf41 (human); -0.359 z-score in the assay on C12orf48 (human). The binding signal with C12orf5 (human) is -0.305 z-score; with C13orf16 it was -0.288 z-score.
